From article doi:10.1101/2020.06.27.175620 (bioRxiv, 2020)
Like-named read-outs stand apart in the source and are kept apart here. No constants are given. Whether binding was seen depends on the method and setting. For some assays here: Binding seen in cells or lysates may run through a third protein. Some entries that bind do so weakly or less than the wild type.

How the values were obtained:
[1] = target: T1, cytochrome b of CIII2 (Rhodobacter capsulatus, UniProt D5ANZ3 1-437); experiment: cryo-EM structure
T1 sequence: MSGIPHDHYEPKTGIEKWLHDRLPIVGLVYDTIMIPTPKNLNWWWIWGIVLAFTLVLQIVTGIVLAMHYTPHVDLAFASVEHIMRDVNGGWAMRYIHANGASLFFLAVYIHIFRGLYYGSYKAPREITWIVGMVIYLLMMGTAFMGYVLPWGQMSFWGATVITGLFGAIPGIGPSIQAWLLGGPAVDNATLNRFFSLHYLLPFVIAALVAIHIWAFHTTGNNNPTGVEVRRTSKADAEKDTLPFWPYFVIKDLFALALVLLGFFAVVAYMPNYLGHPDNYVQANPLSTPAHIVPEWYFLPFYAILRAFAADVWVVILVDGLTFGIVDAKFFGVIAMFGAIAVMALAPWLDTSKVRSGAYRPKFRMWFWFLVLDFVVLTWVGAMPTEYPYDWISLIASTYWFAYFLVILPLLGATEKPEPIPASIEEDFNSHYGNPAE

[2] = target: T2, cytochrome c1 of CIII2 (Rhodobacter capsulatus) (UniProt D5ANZ4); experiment: cryo-EM structure
T2 sequence: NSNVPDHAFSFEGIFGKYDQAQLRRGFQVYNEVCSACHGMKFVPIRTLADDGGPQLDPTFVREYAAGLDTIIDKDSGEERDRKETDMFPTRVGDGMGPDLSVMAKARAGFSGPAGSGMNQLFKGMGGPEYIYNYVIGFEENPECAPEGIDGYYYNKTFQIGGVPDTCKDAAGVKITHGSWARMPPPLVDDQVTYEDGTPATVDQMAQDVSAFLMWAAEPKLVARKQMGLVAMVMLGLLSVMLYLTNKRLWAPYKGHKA

[3] = target: T3, CcoP subunit of the cbb3-type CIV (Rhodobacter capsulatus) (UniProt D5ARP7); experiment: cross-linking
T3 sequence: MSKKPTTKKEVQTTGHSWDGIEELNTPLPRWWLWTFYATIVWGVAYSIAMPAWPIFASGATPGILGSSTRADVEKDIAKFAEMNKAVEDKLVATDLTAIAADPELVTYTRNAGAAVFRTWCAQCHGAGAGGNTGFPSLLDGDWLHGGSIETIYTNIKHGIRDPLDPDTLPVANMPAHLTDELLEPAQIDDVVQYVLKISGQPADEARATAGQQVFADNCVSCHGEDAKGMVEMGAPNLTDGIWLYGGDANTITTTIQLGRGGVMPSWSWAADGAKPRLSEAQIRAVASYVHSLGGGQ

[4] = target: T2, cytochrome c1 of CIII2 (Rhodobacter capsulatus); experiment: cross-linking

B1: CcoP subunit of the cbb3-type CIV (protein, UniProt D5ARP7 1-297)
chain: MSKKPTTKKEVQTTGHSWDGIEELNTPLPRWWLWTFYATIVWGVAYSIAMPAWPIFASGATPGILGSSTRADVEKDIAKFAEMNKAVEDKLVATDLTAIAADPELVTYTRNAGAAVFRTWCAQCHGAGAGGNTGFPSLLDGDWLHGGSIETIYTNIKHGIRDPLDPDTLPVANMPAHLTDELLEPAQIDDVVQYVLKISGQPADEARATAGQQVFADNCVSCHGEDAKGMVEMGAPNLTDGIWLYGGDANTITTTIQLGRGGVMPSWSWAADGAKPRLSEAQIRAVASYVHSLGGGQ
binding [1]: binds
binding ([1]; record 2): binds

B2: Rieske FeS protein of CIII2 (natural protein, Rhodobacter capsulatus)
chain: MSHAEDNAGTRRDFLYHATAATGVVVTGAAVWPLINQMNASADVKAMASIFVDVSAVEVGTQLTVKWRGKPVFIRRRDEKDIELARSVPLGALRDTSAENANKPGAEATDENRTLPAFDGTNTGEWLVMLGVCTHLGCVPMGDKSGDFGGWFCPCHGSHYDSAGRIRKGPAPRNLDIPVAAFVDETTIKLG
binding [2]: binds

B3: cytochrome c2 (soluble cytochrome c) (protein, UniProt P00094 22-137)
chain: GDAAKGEKEFNKCKTCHSIIAPDGTEIVKGAKTGPNLYGVVGRTAGTYPEFKYKDSIVALGASGFAWTEEDIATYVKDPGAFLKEKLDDKKAKTGMAFKLAKGGEDVAAYLASVVK
binding [3]: binds
binding [4]: binds
